PubChem BioAssay AID743454, Peter MacCallum Cancer Centre, 2014
Purpose: 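Knock-downs lowering viability or raising caspase 3/7 activity in vorinostat-treated resistant cells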 (primary screen). Cell system: human HCT116-VR colon cancer cells, selected for vorinostat resistance. Reagents: siRNA pool against human genes, 40 nM siRNA pool. Duration: vorinostat for 24 h, read-out about 72 h after transfection. Conditions: vorinostat at 2.5 µM final. Read-out: 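Two measures, CellTiter-Fluor viability and luminescent caspase 3/7 activity, each as fold change against same-plate mock wells, mean of duplicates, then screen-wide robust z-score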. Scale: viability robust z-score: higher = more viable cells than screen typical; caspase robust z-score: higher = more caspase 3/7 activity than screen typical. Rule for the call: 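a knock-down is a hit when classed RV1 or RV2 for lowered viability, or CA1 or CA2 for caspase activation; those lethal without drug were dropped; hits were retested singly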.
The deposit covers about 18,000 reagents; below is a random part of them. 450 of them (2.5%) were called active. 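Single biological run; no consistent viability z cut-off exists, so the class columns, not z-scores, define the calls.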 A number with no mark means an inactive call.

For DKC1, the entry reads viability hit class no change; caspase hit class no change; viability robust z-score 0.26; caspase robust z-score 0.66.
For TMC6, the values are viability hit class no change; caspase hit class no change; viability robust z-score 0.82; caspase robust z-score -0.82.
Depletion of CRISP2 came out at: viability hit class no change; caspase hit class no change; viability robust z-score 0.68; caspase robust z-score -1.07.
For KRT16 the deposit lists viability hit class no change; caspase hit class no change; viability robust z-score 1.57; caspase robust z-score -0.72.
Against CDKL1 the deposit lists viability hit class no change; caspase hit class no change; viability robust z-score -0.22; caspase robust z-score 0.82.
PATE2 scored viability hit class no change; caspase hit class no change; viability robust z-score 0.18; caspase robust z-score -0.2.
RETREG1 scored viability hit class no change; caspase hit class no change; viability robust z-score 1.4; caspase robust z-score 1.82.
Against SLC26A3, the entry reads viability hit class no change; caspase hit class no change; viability robust z-score 1.09; caspase robust z-score -0.84.
TYSND1 scored viability hit class no change; caspase hit class no change; viability robust z-score 0.43; caspase robust z-score 0.26.
For C4orf51, the entry reads viability hit class no change; caspase hit class no change; viability robust z-score -0.27; caspase robust z-score 0.2.
ABCD2 showed viability hit class no change; caspase hit class no change; viability robust z-score 0.99; caspase robust z-score -0.77.
Against AVPR1B, the entry reads viability hit class no change; caspase hit class no change; viability robust z-score -0.83; caspase robust z-score 0.04.
With knock-down of PPP1CB, the record shows viability hit class no change; caspase hit class no change; viability robust z-score -0.67; caspase robust z-score 2.46.
Knock-down of USP4 resulted in: viability hit class no change; caspase hit class no change; viability robust z-score 1.62; caspase robust z-score -0.36.
After knock-down of EIF4EBP1, the screen gave viability hit class no change; caspase hit class no change; viability robust z-score 1.15; caspase robust z-score 2.11.
For KHDRBS3 the deposit lists viability hit class no change; caspase hit class no change; viability robust z-score 0.46; caspase robust z-score -0.29.
After knock-down of HTRA4, the record shows viability hit class no change; caspase hit class no change; viability robust z-score 0.87; caspase robust z-score 0.12.
RTL8A gave viability hit class no change; caspase hit class no change; viability robust z-score -0.72; caspase robust z-score 2.7.
Knock-down of FOXP4 resulted in: viability hit class no change; caspase hit class no change; viability robust z-score -0.47; caspase robust z-score -0.45.
After knock-down of ASAH1, the record shows viability hit class no change; caspase hit class no change; viability robust z-score -1.3; caspase robust z-score 0.94.
After knock-down of H2BC1 the results were viability hit class no change; caspase hit class no change; viability robust z-score -0.49; caspase robust z-score -0.61.
For MOXD1, the values are viability hit class no change; caspase hit class no change; viability robust z-score 0.64; caspase robust z-score -0.77.
Silencing of CACNA1D came out at: viability hit class no change; caspase hit class no change; viability robust z-score 0.42; caspase robust z-score 0.06.
MAP3K20 scored viability hit class no change; caspase hit class no change; viability robust z-score 0.57; caspase robust z-score 1.73.
After knock-down of ATP6AP1L, the record shows viability hit class no change; caspase hit class no change; viability robust z-score -0.74; caspase robust z-score 1.5.
PIWIL1 showed viability hit class no change; caspase hit class no change; viability robust z-score 0.5; caspase robust z-score -0.7.
Against TFRC, the entry reads viability hit class no change; caspase hit class no change; viability robust z-score 0.2; caspase robust z-score 0.36.

Targets listed so far whose gene name starts with P or p (3):
PATE2 | viability hit class = no change; caspase hit class = no change; viability robust z-score = 0.18; caspase robust z-score = -0.2
PPP1CB | viability hit class = no change; caspase hit class = no change; viability robust z-score = -0.67; caspase robust z-score = 2.46
PIWIL1 | viability hit class = no change; caspase hit class = no change; viability robust z-score = 0.5; caspase robust z-score = -0.7
